Primary screen of a compound library

By UniProt entry, the sequences of proteins in these tests, tags left out. Residues count along the entry.
UniProt P9WPC5, whole entry: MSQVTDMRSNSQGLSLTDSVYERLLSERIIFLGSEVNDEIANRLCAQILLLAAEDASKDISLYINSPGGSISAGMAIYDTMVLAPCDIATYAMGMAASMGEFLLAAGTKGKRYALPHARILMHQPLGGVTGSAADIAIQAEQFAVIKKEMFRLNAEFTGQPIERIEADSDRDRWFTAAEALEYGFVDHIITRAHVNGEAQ
UniProt P9WPC3, whole entry partner: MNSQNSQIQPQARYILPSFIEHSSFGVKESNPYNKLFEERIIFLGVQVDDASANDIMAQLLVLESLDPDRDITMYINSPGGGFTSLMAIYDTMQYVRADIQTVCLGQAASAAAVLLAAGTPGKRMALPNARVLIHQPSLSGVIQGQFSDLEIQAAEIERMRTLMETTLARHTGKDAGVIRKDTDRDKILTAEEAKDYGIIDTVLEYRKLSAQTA
UniProt P9WNZ1, whole entry: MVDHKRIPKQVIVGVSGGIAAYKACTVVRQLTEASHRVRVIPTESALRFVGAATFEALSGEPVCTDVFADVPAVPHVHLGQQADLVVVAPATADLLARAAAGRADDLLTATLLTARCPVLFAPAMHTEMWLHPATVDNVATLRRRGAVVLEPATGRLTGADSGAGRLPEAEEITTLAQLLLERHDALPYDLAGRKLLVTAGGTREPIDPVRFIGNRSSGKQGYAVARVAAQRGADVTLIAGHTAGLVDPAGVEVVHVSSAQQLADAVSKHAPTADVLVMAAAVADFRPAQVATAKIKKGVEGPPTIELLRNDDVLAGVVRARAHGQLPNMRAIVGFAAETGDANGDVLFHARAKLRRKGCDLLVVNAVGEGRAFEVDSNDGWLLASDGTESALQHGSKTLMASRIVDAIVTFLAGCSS
UniProt Q8IDJ8, 1-583: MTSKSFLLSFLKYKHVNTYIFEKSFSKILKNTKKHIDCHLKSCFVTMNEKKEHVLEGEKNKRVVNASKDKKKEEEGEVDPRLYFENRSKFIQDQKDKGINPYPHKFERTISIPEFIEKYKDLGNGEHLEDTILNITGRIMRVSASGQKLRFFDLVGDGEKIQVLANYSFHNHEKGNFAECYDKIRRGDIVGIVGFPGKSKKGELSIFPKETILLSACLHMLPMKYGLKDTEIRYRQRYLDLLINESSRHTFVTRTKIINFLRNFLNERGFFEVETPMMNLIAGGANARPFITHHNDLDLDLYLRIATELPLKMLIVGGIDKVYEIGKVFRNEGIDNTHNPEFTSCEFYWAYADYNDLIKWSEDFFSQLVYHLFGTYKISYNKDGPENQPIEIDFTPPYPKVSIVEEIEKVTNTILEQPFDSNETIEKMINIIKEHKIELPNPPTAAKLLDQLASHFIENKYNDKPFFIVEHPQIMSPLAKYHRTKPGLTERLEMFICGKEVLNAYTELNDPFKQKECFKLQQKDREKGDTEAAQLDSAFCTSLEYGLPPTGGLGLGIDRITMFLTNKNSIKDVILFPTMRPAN

The values are deposited in ChEMBL (CHEMBL3988442, “University of Dundee, Small-Polar-MMV Screening Library” (2021)).

ClpP1P2: 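ClpP1P2, Mycobacterium tuberculosis (UniProt P9WPC5 and UniProt P9WPC3). Protease assay of ClpP1P2, read by the AMC dye that it sets free. Concentration: 50 µM. Higher reads as stronger inhibition, judged from the few compounds that gave an IC50. Most other retested compounds had strongly negative values. Of about 69,000 compounds tested this way, about 10 (0.015%) reached 50% or more in at least one test.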
CoaBC: 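Coenzyme A biosynthesis protein CoaBC, Mycobacterium tuberculosis (UniProt P9WNZ1). Enzyme assay of CoaBC with a phosphate dye (Biomol Green) read at 650 nm. Concentration: 30 µM. Direction is inferred from only a few compounds that gave an IC50; most scored high, so higher reads as stronger inhibition. Most strong results did not repeat in a second test. Of about 67,000 compounds tested this way, about 40 (0.06%) reached 50% or more in at least one test.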
PfKRS1: 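Lysine-tRNA ligase, Plasmodium falciparum 3D7 (UniProt Q8IDJ8). Enzyme assay of the cytosolic lysyl-tRNA synthetase in 384-well plates, read by luminescence. Compounds at 30 µM. Higher reads as stronger inhibition, judged from the few compounds that gave an IC50. Size under these conditions: about 69,000 compounds, about 49 of them at 50% or above in at least one test.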
Leishmania in macrophages: 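Cell assay of Leishmania donovani living inside macrophages; the read-out is not stated. Tested at 30 µM. Higher reads as stronger inhibition (inferred: compounds with an IC50 in retests scored well above the rest). About 69,000 compounds were tested under these conditions; 1.5% (about 1,000) showed 50% or more at least once.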

Results are given as percent effect. The controls that fix the scale are not given in the record; negative values are as filed. Compounds were drawn at random from those tested, without regard to their results. Two or more numbers in one place are separate tests of the same structure; such repeats can differ widely. A dash means the value is not listed here; it may have been measured.

| # | compound | ClpP1P2 | CoaBC | PfKRS1 | Leishmania in macrophages |
|---|---|---|---|---|---|
| 1 | `Cc1nnc2n1CCN(C(=O)C(C)Oc1ccc(C#N)cc1)C2` (configuration not stated) | -2.103 | 3.851 | 7.161 | 32.17 |
| 2 | `Cc1csc(N2CCCN(C(=O)Cc3cccs3)CC2)n1` | -29.01 | 1.281 | 1.348 | 22.13 |
| 3 | `Cc1noc(C)c1CN1CCC2(CCN(Cc3cccc(F)c3)CC2)C1.O=C(O)C(F)(F)F.O=C(O)C(F)(F)F` | - | - | - | 59.23 |
| 4 | `COC(=O)Cn1c(C)cc(=O)c2cc(F)ccc21` | -4.481 | 3.145 | 4.425 | 15.51 |
| 5 | `O=C(CCOc1ccc(Cl)cc1)NCCCn1cccn1` | 0.6514 | 11.65 | -2.596 | -3.005 |
| 6 | `Cc1cnc(N2CCC3(CC2)CC(NC(=O)C(C)C)CO3)nc1` (configuration not stated) | 8.401 | 18.13 | -3.65 | 1.613 |
| 7 | `CC(C)c1n[nH]c(C2CN(Cc3ncc[nH]3)CCO2)n1` (configuration not stated) | 8.83 | 0.8464 | 4.621 | -15.06 |
| 8 | `Cc1oc(-c2cccc(F)c2F)nc1CN(CCO)C(C)C` | -15.81 | 2.542 | 4.642 | 24.62 |
| 9 | `O=C(c1cccc2ncccc12)N1CCCC(n2ccnc2)C1` (configuration not stated) | -9.399 | 4.604 | 0.7205 | 28.29 |
| 10 | `CCOCc1ccc(CNc2cncc(-n3cccn3)n2)cc1` | -740.9 | 0.9558 | -1.425 | 26.78 |
| 11 | `N#Cc1ncn(CCC(=O)Nc2cccc(Cl)c2)n1` | -1.888 | 5.977 | -12.75 | 25.17 |
| 12 | `CC(C)OCCCNC(=O)Nc1cccc2ncccc12` | -2.042 | -3.99 | 1.474 | 12.57 |
| 13 | `CN(C)[C@@H]1CN(C(=O)Cc2ccc(F)cc2)[C@@H]2CCCO[C@H]12` | -9.902 | -1.98 | -1.146 | - |
| 14 | `Cc1cc(C)nc(CN(C)C(=O)C(c2cccnc2)N2CCCC2)c1` (configuration not stated) | 2.07 | 5.2 | 6.684 | 19.51 |
| 15 | `CCc1csc(C2CCCN(C(=O)c3ccc4[nH]nnc4c3)C2)n1` (configuration not stated) | -19.77 | 0.7833 | 1.626 | 19.23 |
| 16 | `Cn1cnnc1S(=O)(=O)C1CCN(C(=O)c2ccsc2)CC1` | 9.246 | 0 | 6.253 | 2.474 |
| 17 | `CC(NCC(=O)N1CCc2sccc2C1)c1ccccc1F` (configuration not stated) | -16.46 | -3.388 | 0.1886 | 22.57 |
| 18 | `O=C(O)C(F)(F)F.[H][C@@]12CCN(c3nnc(C)s3)C[C@]1([H])O[C@@H](C(=O)NC)C2` | - | - | - | -3.263 |
| 19 | `CCc1nnc(CN2CCCC2Cn2cc(C)cn2)o1` (configuration not stated) | 3.57 | 3.728 | 3.697 | 2.108 |
| 20 | `CCCn1cc(C(=O)NC(CC(=O)O)c2ccco2)c(C)n1` (configuration not stated) | -1.192 | 11.6 | 1.397 | 29.52 |
| 21 | `CCN(C)c1cc(CNC(=O)CNC(=O)CC2CCCCC2)ccn1` | -5.627 | 0.4673 | 6.063 | 16.58 |
| 22 | `Cc1nc(NC(=O)OC(C)(C)C)sc1C(N)=O` | -2.528 | -2.419 | 8.408 | 10.9 |
| 23 | `CC(C)[C@@H]1CN(Cc2ccccc2C#N)C[C@H]1C(=O)O` | -5.69 | -9.856 | 1.33 | 3.261 |
| 24 | `Cc1cc(C)nc(C2CCCNC2)n1` (configuration not stated) | 19.67 | 5.361 | -0.8238 | - |
| 25 | `Cc1ccc(N2CC[C@]3(O)CCN(CCN4CCCC4=O)C[C@@H]3C2)nn1` | -9.35 | -4.348 | 4.596 | - |
| 26 | `Cc1csc(CNC(=O)NC(C)c2ccc3c(c2)OCCO3)n1` (configuration not stated) | 11.18 | -1.168 | 6.261 | 3.062 |
| 27 | `CCCn1ncc(CN2CCCCC2CCCOC)c1C` (configuration not stated) | -3.661 | 2.066 | 1.077 | 16.78 |
| 28 | `O=C(O)C(F)(F)F.[H][C@@]12CN(Cc3ccsc3)CCO[C@]1([H])CN(C(=O)C1CC(F)(F)C1)C2` | - | - | - | 6.241 |
| 29 | `CCN(Cc1csc(CS(C)(=O)=O)n1)c1cccc(F)c1` | 5.756 | 7.025 | 8.502 | 18.84 |
| 30 | `CC1c2ccc(F)cc2CCN1C(=O)c1[nH]c(=O)[nH]c(=O)c1N` (configuration not stated) | -8.791 | 0.3367 | 3.567 | 25.32 |
| 31 | `O=C(Cn1nnc(-c2cc3ccccc3o2)n1)N1CCOCC1` | 12.2 | 6.349 | 4.909 | -0.4572 |
| 32 | `Cc1nc(C)n(C2CCCN(C(=O)Cc3ccc4c(c3)CCC4)C2)n1` (configuration not stated) | -8.296 | 3.046 | 5.744 | 19.08 |
| 33 | `CCOC(=O)c1nc(CN2CCN(C(=O)NC3CCCCC3)CC2)cs1` | 9.997 | 17.39 | 1.598 | 5.213 |
| 34 | `Cc1cnc(N2CCn3cc(CNC(=O)CC4CC4)nc3C2)nc1` | 5.858 | 24.35 & 7.407 | -8.806 | -10.37 |
| 35 | `Cc1nc(CN2CCCC(CCc3ccccc3C)C2)c[nH]1` (configuration not stated) | -5.622 | -10.71 | 1.528 | -6.599 |
| 36 | `O=C(NCc1cccnc1N1CCCCC1)c1ccc2cc[nH]c2c1` | 1.178 | 8.156 | 2.163 | 29.91 |
| 37 | `O=C(O)C(F)(F)F.O=C(O)C(F)(F)F.[H][C@]12CC(=O)N(Cc3cccc(C)n3)[C@@]1([H])CCN2Cc1nccs1` | - | - | - | 2.484 |
| 38 | `Cc1ncc(CO)c(CN2CCCC2c2nc3c(C)cccc3[nH]2)c1O` (configuration not stated) | -1.513 | 3.254 | -0.8931 | 2.765 |
| 39 | `CCN(CC)c1ccc(NS(=O)(=O)c2cnn(CC)c2)cn1` | -79.04 | 6.909 | 5.208 | 26.28 |
| 40 | `COc1ccc(NC(=O)N2CCC3(CC2)NC(=O)CC3C(=O)O)c(C)c1` (configuration not stated) | 2.869 | 9.091 | 5.592 | 25.23 |
| 41 | `c1ccc(CCCN2CC(n3cccn3)C2)cc1` | 12.88 | -1.349 | 2.417 | 24.35 |
| 42 | `Cc1cc(C(=O)N2CCN(c3nc4c(C)cccc4s3)CC2)no1` | 7.866 | 3.39 | -0.8293 | 14.72 |
| 43 | `[H][C@]12CCN[C@@]1([H])CN(C(=O)CC(C)(C)C)C2` | - | - | - | 1.552 |
| 44 | `Cc1cc(CN2CCC=C(CN(C)C(=O)c3ccco3)C2)no1` | -8.821 | -8.578 | 7.113 | 22.23 |
| 45 | `[H][C@@]12CCN(C(=O)c3cc(C(C)=O)c(C)[nH]c3=O)C[C@@]([H])(CC1)N2C` | - | - | - | -4.969 |
| 46 | `Cc1nc(N)ncc1C(=O)N1CCCC1(C)C(=O)N(C)C` (configuration not stated) | -13.08 | -6.796 | 1.997 | -14.31 |
| 47 | `CCn1ccnc1CN1CCN(CCC(=O)NC(C)(C)C)CC1C` (configuration not stated) | -4.75 | 6.004 | 8.394 | 21.91 |
| 48 | `c1ccc(-c2nc(CN3CCCC(Cn4cncn4)C3)cs2)cc1` (configuration not stated) | -36.1 | 1.281 | 2.308 | 12.02 |
| 49 | `Cl.O=C1C(NCc2ccc3c(c2)CCO3)CCN1Cc1ccccc1` (configuration not stated) | - | - | - | 10.9 |
| 50 | `CC(C)c1nsc(NC2CC(=O)N(C(C)(C)C)C2)n1` (configuration not stated) | -8.354 | 0.6046 | 2.123 | 1.125 |
| 51 | `COc1cc(-n2ccnc2-c2ccc(C(=O)O)s2)ccc1NC(C)=O` | 0.04672 | -4.187 | 6.989 | 19.14 |
| 52 | `COc1ccc2nnc(CCC(=O)NCc3cccn3C)n2n1` | -3.178 | 5.206 | 5.4 | 12.31 |
| 53 | `CSCC[C@H](N)c1nnc(SCC(=O)Nc2ccc(Br)cc2)o1` | -3.451 | 1.013 | 2.372 | - |

3 of the entries, repeated:

Cc1csc(CNC(=O)NC(C)c2ccc3c(c2)OCCO3)n1 (configuration not stated) gave ClpP1P2: 11.18%; CoaBC: -1.168%; PfKRS1: 6.261%; Leishmania in macrophages: 3.062%.
Cc1nc(CN2CCCC(CCc3ccccc3C)C2)c[nH]1 (configuration not stated) gave ClpP1P2: -5.622%; CoaBC: -10.71%; PfKRS1: 1.528%; Leishmania in macrophages: -6.599%.
O=C(O)C(F)(F)F.[H][C@@]12CN(Cc3ccsc3)CCO[C@]1([H])CN(C(=O)C1CC(F)(F)C1)C2 gave Leishmania in macrophages: 6.241%.